Results are given in words; binding and its absence hold for the method and conditions named. In cells and extracts the contact can be indirect. A yes stands for co-enrichment or nearness to the bait. Other partners may have been found. For some assays here: A no says only that the protein was not detected with the bait.
How the values were obtained:
[1] = biological target: T1, CD6 pY629 peptide (biotin-SSGEWpYQNFQP) (human); experiment: affinity purification with mass spectrometry; biotinylated peptide (50 μg) on Dynabeads M-280 streptavidin, multivalent; lysates of Jurkat T cells stimulated with ionomycin and PMA for 24 h; 18 h at 4°C; washed with 0.1% Triton X-100 in PBS; only the target purified
T1 sequence (peptide, biotin on the N-terminus; phosphotyrosine at Y629): SSGEWYQNFQP

Amino acid sequences for entries named in this document (tags omitted).
UniProt P62993: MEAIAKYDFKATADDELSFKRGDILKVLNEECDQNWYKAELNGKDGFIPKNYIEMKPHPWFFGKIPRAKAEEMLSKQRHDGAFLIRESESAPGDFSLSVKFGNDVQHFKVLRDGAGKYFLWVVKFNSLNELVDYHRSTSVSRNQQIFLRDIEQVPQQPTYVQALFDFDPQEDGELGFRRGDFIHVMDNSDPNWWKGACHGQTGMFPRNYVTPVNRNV

[2] = biological target: T2, control peptide (biotin-…); experiment: as above
T2 sequence (peptide, biotin on the N-terminus): HVDNEYSQPPRNS

Substance: growth factor receptor-bound protein 2 (GRB2), endogenous (from UniProt P62993 1-217)
- binding [1]: binds
- binding [2]: no binding

— PMC5440646, “T Cell Costimulation by CD6 Is Dependent on Bivalent Binding of a GADS/SLP-76 Complex” (Molecular and Cellular Biology, 2017)
